In article PMC10781740:
Results are given in words; binding and its absence hold for the method and conditions named. Binding seen in cells or lysates may run through a third protein. Some binding calls cover weakened binding; strength is not graded here.

Amino acid sequences for entries named in this document (tags omitted). A change or cut given only in a name is not applied to a line headed by its entry.
UniProt Q9Y6K9: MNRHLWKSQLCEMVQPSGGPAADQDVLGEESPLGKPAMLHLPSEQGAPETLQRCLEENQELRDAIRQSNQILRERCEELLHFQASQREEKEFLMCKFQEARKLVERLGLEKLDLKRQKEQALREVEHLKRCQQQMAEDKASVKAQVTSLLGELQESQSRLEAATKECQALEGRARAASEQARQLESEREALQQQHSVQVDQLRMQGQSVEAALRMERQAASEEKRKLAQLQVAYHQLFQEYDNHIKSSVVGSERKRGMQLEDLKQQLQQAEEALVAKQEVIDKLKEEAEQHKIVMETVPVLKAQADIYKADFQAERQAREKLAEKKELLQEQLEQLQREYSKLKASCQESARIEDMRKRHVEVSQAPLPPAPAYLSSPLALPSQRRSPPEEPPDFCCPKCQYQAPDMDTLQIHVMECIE
UniProt Q96EP0: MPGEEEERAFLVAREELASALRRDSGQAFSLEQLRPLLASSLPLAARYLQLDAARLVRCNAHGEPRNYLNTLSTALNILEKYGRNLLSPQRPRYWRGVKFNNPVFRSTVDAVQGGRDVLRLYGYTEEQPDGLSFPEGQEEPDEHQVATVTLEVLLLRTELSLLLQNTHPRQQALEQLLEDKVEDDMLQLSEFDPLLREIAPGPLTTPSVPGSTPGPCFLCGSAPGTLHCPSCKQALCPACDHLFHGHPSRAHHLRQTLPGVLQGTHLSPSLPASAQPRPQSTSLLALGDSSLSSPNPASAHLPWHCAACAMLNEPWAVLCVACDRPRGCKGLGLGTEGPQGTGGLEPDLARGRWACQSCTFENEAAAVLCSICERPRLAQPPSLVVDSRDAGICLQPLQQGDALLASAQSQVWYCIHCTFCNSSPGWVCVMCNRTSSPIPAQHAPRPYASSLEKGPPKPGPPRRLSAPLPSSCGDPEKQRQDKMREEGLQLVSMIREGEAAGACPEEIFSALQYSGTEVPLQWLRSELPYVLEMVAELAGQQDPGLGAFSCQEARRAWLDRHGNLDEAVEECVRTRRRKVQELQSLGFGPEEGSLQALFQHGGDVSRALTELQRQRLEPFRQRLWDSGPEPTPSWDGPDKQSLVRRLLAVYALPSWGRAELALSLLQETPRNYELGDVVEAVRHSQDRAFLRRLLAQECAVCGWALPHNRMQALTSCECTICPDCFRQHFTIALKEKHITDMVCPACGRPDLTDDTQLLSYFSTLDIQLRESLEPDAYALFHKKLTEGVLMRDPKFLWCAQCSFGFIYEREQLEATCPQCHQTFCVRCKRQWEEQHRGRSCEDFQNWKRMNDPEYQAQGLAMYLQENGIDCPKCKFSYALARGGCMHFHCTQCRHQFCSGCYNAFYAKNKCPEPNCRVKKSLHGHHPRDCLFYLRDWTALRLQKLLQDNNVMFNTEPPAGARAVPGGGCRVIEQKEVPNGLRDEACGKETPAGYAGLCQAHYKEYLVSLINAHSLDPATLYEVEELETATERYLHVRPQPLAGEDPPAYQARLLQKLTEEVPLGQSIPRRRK

How the values were obtained:
[1] = target: tandem-affinity purification (TAP)-tagged NEMO (UniProt Q9Y6K9); assay: co-IP; Flag-M2 beads on lysates of A549 TAP-NEMO, TAP-HOIP-WT or TAP-HOIP-C885S rescue cells; cells primed with 100 U/mL IFNα for 24 h, mock or infected with SeV 1:300 (3 h p.i. for TAP-NEMO; indicated times for TAP-HOIP); 100 mM NaCl, 40 mM Tris-HCl pH 7.5, 1 mM CaCl2, 1 mM MgCl2, with 1% Triton X-100 and 0.1% SDS for the sonicated pellet; 16 h at 4 °C; Western blot
[2] = target: tandem-affinity purification (TAP)-tagged HOIP (UniProt Q96EP0); assay: as above
[3] = target: TAP-HOIP-C885S (UniProt Q96EP0); assay: as above
[4] = target: tandem-affinity purification (TAP)-tagged NEMO (UniProt Q9Y6K9); assay: co-IP; as a1, Flag-M2 IP of TAP-NEMO from A549 TAP-NEMO cells at 6 h after SeV infection; Western blot

binding [1] | binding [2] | binding [3] | binding [4] | Binder
binds | – | – | – | Shank-associated RH domain-interacting protein (SHARPIN) (protein, UniProt Q9H0F6 1-387) MAPPAGGAAAAASDLGSAAVLLAVHAAVRPLGAGPDAEAQLRRLQLSADPERPGRFRLELLGAGPGAVNLEWPLESVSYTIRGPTQHELQPPPGGPGTLSLHFLNPQEAQRWAVLVRGATVEGQNGSKSNSPPALGPEACPVSLPSPPEASTLKGPPPEADLPRSPGNLTEREELAGSLARAIAGGDEKGAAQVAAVLAQHRVALSVQLQEACFPPGPIRLQVTLEDAASAASAASSAHVALQVHPHCTVAALQEQVFSELGFPPAVQRWVIGRCLCVPERSLASYGVRQDGDPAFLYLLSAPREAPATGPSPQHPQKMDGELGRLFPPSLGLPPGPQPAASSLPSPLQPSWSCPSCTFINAPDRPGCEMCSTQRPCTWDPLAAAST
binds | binds | binds | binds | TBK1 (enzyme, UniProt Q9UHD2 1-729) MQSTSNHLWLLSDILGQGATANVFRGRHKKTGDLFAIKVFNNISFLRPVDVQMREFEVLKKLNHKNIVKLFAIEEETTTRHKVLIMEFCPCGSLYTVLEEPSNAYGLPESEFLIVLRDVVGGMNHLRENGIVHRDIKPGNIMRVIGEDGQSVYKLTDFGAARELEDDEQFVSLYGTEEYLHPDMYERAVLRKDHQKKYGATVDLWSIGVTFYHAATGSLPFRPFEGPRRNKEVMYKIITGKPSGAISGVQKAENGPIDWSGDMPVSCSLSRGLQVLLTPVLANILEADQEKCWGFDQFFAETSDILHRMVIHVFSLQQMTAHKIYIHSYNTATIFHELVYKQTKIISSNQELIYEGRRLVLEPGRLAQHFPKTTEENPIFVVSREPLNTIGLIYEKISLPKVHPRYDLDGDASMAKAITGVVCYACRIASTLLLYQELMRKGIRWLIELIKDDYNETVHKKTEVVITLDFCIRNIEKTVKVYEKLMKINLEAAELGEISDIHTKLLRLSSSQGTIETSLQDIDSRLSPGGSLADAWAHQEGTHPKDRNVEKLQVLLNCMTEIYYQFKKDKAERRLAYNEEQIHKFDKQKLYYHATKAMTHFTDECVKKYEAFLNKSEEWIRKMLHLRKQLLSLTNQCFDIEEEVSKYQEYTNELQETLPQKMFTASSGIKHTMTPIYPSSNTLVEMTLGMKKLKEEMEGVVKELAENNHILERFGSLTMDGGLRNVDCL
